Earlier results in patent publication US6121315A, “Oral compositions containing a zinc compound” (priority 1999, dated 2000).

Details: 5% by weight in water, nine-person taste panel; cited from earlier work

CC1CCC(C(C)C)C(OC(=O)CCC(=O)[O-])C1.[Na+] (stereo not shown) [sodium monomenthyl succinate]
taste: vile and bitter
